# Data published in the supplement of paper PMC11732987, “Enantioselective OTUD7B fragment discovery through chemoproteomics screening and high-throughput optimisation” (Communications Chemistry, 2025).
# By UniProt entry, the sequences of proteins in these tests, tags left out. Where a name states a change or a piece, a line headed by the entry shows the natural chain unless it says otherwise. Residues count along the entry.
# UniProt Q96F86: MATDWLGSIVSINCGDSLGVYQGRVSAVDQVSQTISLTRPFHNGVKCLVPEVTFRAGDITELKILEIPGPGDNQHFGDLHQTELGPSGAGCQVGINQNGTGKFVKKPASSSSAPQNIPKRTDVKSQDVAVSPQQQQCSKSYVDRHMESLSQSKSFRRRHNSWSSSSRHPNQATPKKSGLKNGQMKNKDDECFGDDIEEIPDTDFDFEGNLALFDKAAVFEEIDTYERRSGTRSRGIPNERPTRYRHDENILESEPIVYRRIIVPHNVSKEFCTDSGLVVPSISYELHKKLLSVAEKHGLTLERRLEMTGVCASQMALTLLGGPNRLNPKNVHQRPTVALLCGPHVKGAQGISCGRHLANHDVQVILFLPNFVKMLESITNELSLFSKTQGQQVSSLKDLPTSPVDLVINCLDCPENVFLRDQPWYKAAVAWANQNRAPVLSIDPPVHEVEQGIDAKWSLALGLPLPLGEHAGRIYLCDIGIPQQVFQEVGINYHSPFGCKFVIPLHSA
# UniProt P55199: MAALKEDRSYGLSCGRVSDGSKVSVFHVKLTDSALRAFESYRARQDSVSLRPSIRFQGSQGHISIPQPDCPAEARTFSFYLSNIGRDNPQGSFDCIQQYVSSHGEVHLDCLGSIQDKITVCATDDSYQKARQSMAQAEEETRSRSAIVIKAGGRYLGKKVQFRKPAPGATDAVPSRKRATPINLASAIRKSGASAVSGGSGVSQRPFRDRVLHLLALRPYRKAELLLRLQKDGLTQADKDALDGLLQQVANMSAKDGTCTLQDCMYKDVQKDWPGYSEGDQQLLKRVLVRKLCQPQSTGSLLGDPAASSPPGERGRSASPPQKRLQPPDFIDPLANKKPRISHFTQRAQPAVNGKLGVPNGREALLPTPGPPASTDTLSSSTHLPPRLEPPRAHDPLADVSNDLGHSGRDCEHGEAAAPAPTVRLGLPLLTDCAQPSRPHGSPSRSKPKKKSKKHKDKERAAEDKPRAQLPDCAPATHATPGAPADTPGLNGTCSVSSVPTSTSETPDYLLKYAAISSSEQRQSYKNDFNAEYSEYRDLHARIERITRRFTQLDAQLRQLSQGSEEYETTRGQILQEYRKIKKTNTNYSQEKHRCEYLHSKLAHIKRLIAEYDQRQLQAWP
# UniProt Q9GZT9: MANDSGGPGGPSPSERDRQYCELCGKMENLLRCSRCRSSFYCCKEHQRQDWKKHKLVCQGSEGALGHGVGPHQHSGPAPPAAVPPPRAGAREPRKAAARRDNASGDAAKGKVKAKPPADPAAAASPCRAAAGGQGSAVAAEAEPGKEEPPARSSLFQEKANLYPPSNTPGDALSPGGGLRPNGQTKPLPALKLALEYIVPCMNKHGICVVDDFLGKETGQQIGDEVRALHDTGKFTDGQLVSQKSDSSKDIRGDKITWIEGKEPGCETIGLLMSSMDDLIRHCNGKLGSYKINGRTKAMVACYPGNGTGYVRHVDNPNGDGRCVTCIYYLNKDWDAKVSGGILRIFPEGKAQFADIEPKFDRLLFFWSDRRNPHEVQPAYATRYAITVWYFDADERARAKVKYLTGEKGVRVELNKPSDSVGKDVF
# UniProt P06730, whole entry, looked up: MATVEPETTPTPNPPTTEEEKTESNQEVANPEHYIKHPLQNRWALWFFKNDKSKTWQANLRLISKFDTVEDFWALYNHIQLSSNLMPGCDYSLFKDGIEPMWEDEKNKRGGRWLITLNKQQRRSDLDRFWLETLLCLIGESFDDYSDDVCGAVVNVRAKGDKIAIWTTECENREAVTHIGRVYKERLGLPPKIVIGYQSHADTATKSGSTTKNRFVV
# UniProt Q14204, 2185-2206: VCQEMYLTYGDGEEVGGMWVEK
# UniProt P41091: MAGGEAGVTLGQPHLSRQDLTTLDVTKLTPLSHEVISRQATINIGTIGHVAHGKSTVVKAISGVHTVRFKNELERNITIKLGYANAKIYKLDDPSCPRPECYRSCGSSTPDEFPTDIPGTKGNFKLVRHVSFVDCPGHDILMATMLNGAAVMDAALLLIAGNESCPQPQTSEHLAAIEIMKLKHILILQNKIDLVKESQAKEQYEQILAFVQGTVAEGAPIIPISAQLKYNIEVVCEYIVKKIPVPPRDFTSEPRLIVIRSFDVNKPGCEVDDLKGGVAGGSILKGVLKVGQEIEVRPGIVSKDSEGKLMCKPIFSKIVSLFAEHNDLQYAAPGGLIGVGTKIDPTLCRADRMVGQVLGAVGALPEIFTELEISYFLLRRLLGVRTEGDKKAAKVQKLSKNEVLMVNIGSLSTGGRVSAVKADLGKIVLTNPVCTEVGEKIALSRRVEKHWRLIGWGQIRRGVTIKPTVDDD
# UniProt Q8WVE0: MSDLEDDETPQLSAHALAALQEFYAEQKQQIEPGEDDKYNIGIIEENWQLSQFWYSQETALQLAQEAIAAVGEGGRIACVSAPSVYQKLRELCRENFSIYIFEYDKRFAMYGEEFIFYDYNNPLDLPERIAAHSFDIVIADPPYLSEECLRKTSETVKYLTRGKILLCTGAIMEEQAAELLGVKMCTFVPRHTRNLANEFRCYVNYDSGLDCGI
# UniProt P60981: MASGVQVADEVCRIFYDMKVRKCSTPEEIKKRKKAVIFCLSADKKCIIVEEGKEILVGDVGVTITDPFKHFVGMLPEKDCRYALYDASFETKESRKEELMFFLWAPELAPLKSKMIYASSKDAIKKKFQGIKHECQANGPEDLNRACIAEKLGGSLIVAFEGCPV
# UniProt P15924: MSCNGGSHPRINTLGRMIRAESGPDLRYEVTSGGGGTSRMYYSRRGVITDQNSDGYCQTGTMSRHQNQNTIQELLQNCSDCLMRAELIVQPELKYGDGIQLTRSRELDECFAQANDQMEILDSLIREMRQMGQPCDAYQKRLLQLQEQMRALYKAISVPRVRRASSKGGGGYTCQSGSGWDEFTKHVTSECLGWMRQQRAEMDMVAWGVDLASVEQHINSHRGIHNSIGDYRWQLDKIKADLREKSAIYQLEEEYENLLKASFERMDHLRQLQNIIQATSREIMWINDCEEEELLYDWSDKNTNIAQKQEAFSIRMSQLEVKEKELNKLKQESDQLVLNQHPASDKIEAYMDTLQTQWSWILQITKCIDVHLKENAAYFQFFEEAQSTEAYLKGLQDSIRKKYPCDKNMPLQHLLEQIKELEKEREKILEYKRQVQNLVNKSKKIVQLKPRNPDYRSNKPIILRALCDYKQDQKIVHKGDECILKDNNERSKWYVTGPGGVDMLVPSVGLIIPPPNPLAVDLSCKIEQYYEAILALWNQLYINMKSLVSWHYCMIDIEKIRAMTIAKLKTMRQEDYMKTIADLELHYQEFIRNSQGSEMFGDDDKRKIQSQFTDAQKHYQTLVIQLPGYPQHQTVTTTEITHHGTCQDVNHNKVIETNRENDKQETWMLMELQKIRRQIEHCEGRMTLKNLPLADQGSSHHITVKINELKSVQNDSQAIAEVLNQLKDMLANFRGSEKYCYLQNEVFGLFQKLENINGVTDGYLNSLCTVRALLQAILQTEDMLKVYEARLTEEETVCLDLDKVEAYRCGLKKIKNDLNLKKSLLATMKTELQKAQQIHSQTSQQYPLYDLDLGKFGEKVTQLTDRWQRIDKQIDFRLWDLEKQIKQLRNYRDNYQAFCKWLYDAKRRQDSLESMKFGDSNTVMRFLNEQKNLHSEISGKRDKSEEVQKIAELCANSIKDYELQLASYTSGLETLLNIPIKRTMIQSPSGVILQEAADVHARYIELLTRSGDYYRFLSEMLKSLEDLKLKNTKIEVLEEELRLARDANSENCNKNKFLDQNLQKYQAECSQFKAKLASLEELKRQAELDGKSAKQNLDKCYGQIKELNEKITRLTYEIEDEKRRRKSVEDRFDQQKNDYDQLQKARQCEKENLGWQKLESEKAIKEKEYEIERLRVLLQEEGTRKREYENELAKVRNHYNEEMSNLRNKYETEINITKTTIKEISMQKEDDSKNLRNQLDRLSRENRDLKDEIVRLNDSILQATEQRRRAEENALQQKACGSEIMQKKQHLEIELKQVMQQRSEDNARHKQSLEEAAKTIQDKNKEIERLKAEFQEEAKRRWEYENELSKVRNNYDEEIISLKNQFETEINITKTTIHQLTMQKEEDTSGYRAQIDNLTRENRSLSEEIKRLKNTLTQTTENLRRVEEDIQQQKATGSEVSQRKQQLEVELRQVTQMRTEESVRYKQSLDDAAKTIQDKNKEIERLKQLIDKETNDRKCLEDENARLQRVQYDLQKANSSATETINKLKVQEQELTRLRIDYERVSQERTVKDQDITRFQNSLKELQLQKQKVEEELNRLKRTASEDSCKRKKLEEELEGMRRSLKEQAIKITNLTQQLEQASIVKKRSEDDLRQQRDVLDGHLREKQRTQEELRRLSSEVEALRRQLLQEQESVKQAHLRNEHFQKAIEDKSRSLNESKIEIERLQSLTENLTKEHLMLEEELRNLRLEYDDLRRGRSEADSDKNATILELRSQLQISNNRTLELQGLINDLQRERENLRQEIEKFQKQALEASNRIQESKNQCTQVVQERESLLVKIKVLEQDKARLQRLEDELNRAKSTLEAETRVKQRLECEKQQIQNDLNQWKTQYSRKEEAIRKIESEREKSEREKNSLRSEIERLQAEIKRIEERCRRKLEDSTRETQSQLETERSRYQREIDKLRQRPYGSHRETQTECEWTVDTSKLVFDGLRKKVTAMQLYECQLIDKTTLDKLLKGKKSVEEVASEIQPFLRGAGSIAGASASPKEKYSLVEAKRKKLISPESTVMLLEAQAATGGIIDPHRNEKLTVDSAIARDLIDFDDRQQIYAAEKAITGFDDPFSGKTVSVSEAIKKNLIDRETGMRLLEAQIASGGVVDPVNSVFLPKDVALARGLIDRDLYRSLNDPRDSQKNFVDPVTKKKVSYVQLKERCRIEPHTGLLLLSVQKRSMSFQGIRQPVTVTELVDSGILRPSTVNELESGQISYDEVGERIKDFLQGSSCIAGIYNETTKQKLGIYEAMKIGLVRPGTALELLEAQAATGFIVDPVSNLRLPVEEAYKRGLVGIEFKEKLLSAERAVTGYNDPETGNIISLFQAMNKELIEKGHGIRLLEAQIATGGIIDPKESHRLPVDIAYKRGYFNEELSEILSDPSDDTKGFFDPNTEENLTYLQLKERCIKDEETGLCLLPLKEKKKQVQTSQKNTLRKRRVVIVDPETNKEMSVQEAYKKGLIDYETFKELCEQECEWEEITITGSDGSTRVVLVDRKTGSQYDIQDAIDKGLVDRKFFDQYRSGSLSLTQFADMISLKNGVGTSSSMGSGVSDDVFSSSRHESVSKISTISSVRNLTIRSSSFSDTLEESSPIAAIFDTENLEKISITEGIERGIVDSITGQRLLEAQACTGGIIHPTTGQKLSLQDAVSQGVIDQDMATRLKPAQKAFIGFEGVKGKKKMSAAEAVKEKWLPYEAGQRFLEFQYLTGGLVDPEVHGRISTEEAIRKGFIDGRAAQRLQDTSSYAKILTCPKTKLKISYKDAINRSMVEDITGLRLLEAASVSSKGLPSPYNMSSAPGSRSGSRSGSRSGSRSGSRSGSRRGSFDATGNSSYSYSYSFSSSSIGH
# UniProt Q15029: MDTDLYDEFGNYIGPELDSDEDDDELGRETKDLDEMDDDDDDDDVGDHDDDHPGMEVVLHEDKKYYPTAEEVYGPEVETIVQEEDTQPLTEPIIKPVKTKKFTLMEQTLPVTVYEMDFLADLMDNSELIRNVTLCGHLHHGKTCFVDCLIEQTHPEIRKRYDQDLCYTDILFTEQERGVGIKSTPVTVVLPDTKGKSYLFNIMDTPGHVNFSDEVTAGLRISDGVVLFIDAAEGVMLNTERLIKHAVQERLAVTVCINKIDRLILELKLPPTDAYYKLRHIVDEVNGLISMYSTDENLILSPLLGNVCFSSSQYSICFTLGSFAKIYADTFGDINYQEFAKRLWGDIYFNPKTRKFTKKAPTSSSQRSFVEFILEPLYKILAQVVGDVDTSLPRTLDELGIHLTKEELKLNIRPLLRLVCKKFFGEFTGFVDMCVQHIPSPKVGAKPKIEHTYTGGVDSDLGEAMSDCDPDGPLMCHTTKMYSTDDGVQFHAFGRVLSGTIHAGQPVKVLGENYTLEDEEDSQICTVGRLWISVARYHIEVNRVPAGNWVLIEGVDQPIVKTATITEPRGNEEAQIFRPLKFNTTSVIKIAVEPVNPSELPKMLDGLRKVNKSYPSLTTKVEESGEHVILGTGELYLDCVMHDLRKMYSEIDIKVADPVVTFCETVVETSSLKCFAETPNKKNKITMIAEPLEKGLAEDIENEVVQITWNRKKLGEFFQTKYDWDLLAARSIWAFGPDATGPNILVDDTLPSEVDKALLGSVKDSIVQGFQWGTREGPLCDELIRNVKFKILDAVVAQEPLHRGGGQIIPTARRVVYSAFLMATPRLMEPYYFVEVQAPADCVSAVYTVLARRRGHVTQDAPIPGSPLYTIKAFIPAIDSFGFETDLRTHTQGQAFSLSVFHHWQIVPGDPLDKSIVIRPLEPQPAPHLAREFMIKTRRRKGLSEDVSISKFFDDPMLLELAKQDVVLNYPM
# This is one part of the list. The data scatter; read single values as rough.
# Compound: ClCC(=O)N[C@@H]1CCCc2ccccc12
# Assay: log2 mean competition ratio of IA-DTB cysteine labelling (DMSO/compound) (log2 ratio); higher = stronger cysteine engagement by compound
# Conditions: 50 µM; treatment time: 4 h; cell line lysate: HEK293T
# Procedure: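 IA-DTB competitive cysteine chemoproteomics in HEK293T RIPA lysate. Lysates were treated with compound 29 or 30 at 50 or 200 µM for 4 h, then IA-DTB (500 µM, 1 h), trypsin-digested, NeutrAvidin-enriched and analysed by diaPASEF. Competition ratio = intensity DMSO / intensity compound (n=4 treated, n=64 DMSO); binding: mean log2 CR ≥ 1 and p ≤ 0.05 plus QC filters. Target is the cysteine site.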
row,Target,log2 mean competition ratio
1,DYNC2H1 C1915 (UniProt Q8NCM8),0.0515
2,EIF3D C404 (UniProt O15371),-0.201
3,EDC3 C137 (UniProt Q96F86),-0.0735
4,EIF2S3B C348,-0.24
5,DUSP7 C54,-0.00394
6,ELL C411 (UniProt P55199),0.414
7,EDC3 C353 (UniProt Q96F86),-0.0415
8,EIF3B C527,-0.178
9,ELAC2 C87 (UniProt Q9BQ52),0.278
10,EGLN1 C201 (UniProt Q9GZT9),0.032
11,EIF2D C528 (UniProt P41214),0.119
12,EIF4E C170 (UniProt P06730),-0.28
13,DYNC2H1 C1465 (UniProt Q8NCM8),-0.208
14,DYNC1H1 C2186 (UniProt Q14204),-0.274
15,DVL1 C382 (UniProt O14640),0.227
16,EIF2AK1 C140 (UniProt Q9BQI3),-0.212
17,EIF3A C58 (UniProt Q14152),-0.463
18,E4F1 C361,-0.384
19,EIF2S3 C105 (UniProt P41091),-0.255

row,Target,log2 mean competition ratio
1,ECPAS C1638 (UniProt Q5VYK3),0.0368
2,ELL C121 (UniProt P55199),-0.129
3,EEF1AKMT1 C79 (UniProt Q8WVE0),0.0298
4,DTL C544 (UniProt Q9NZJ0),0.173
5,E2F7 C400,-0.0596
6,EED C254,0.449
7,DSTN C80 (UniProt P60981),-0.057
8,EBF2 C254,-0.0345
9,DYNC1H1 C3389 (UniProt Q14204),0.0296
10,EIF4G3 C982,0.214
11,DSP C1069 (UniProt P15924),0.183
12,EFHD2 C172 (UniProt Q96C19),0.352
13,E2F6 C26 (UniProt O75461),0.0575
14,DYRK1A C10 (UniProt Q13627),0.0232
15,EFTUD2 C166 (UniProt Q15029),-0.515
16,EHHADH C51 (UniProt Q08426),-0.218
17,DSP C482 (UniProt P15924),0.154
18,DST C5610 (UniProt Q03001),-0.0624

# Same assay, conditions: 200 µM; treatment time: 4 h; cell line lysate: HEK293T
row,Target,log2 mean competition ratio
1,DYNC2H1 C1915 (UniProt Q8NCM8),-0.0729
2,EIF3D C404 (UniProt O15371),0.09
3,EDC3 C137 (UniProt Q96F86),0.114
4,EIF2S3B C348,-0.0737
5,DUSP7 C54,-0.0281
6,ELL C411 (UniProt P55199),-0.386
7,EDC3 C353 (UniProt Q96F86),0.0966
8,EIF3B C527,-0.371
9,ELAC2 C87 (UniProt Q9BQ52),-0.234
10,EGLN1 C201 (UniProt Q9GZT9),-0.188
11,EIF2D C528 (UniProt P41214),-0.13
12,EIF4E C170 (UniProt P06730),-0.255
13,DYNC2H1 C1465 (UniProt Q8NCM8),-0.295
14,DYNC1H1 C2186 (UniProt Q14204),-0.338
15,DVL1 C382 (UniProt O14640),0.117
16,EIF2AK1 C140 (UniProt Q9BQI3),0.364
17,EIF3A C58 (UniProt Q14152),0.0655
18,E4F1 C361,0.0879
19,EIF2S3 C105 (UniProt P41091),0.0439

row,Target,log2 mean competition ratio
1,ECPAS C1638 (UniProt Q5VYK3),-0.199
2,ELL C121 (UniProt P55199),-0.203
3,EEF1AKMT1 C79 (UniProt Q8WVE0),-0.176
4,DTL C544 (UniProt Q9NZJ0),0.22
5,E2F7 C400,-0.167
6,EED C254,0.237
7,DSTN C80 (UniProt P60981),-0.175
8,EBF2 C254,-0.0206
9,DYNC1H1 C3389 (UniProt Q14204),-0.228
10,EIF4G3 C982,0.147
11,DSP C1069 (UniProt P15924),0.246
12,EFHD2 C172 (UniProt Q96C19),-0.474
13,E2F6 C26 (UniProt O75461),0.141
14,DYRK1A C10 (UniProt Q13627),-0.175
15,EFTUD2 C166 (UniProt Q15029),0.213
16,EHHADH C51 (UniProt Q08426),-0.343
17,DSP C482 (UniProt P15924),-0.0838
18,DST C5610 (UniProt Q03001),-0.0512
